From PubChem BioAssay AID1347076 (National Center for Advancing Translational Sciences (NCATS), 2019)
Out of some 400,000 compounds screened, about 13,000 (3.2%) were called active. The shares of active, inactive and inconclusive entries below differ from those in the screen. Calls come from the whole dose curve; as a rule, active = well fitted cell-killing curve with a large enough effect; inconclusive = small, poorly fitted or top-dose-only effect, or effect the other way; inactive = flat fitted curve, though single readings scatter. Where the call is inconclusive, the potency comes from a doubtful curve fit.

Test: qHTS assay for MDR1-selective chemotherapeutics: Primary screen using the drug-selected MDR subline cells KB-V1; note: nearly all actives have a fitted effect of over 60% in size
Conditions: KB-V1 MDR cells viability, CellTiter-Glo, 72 h; activity change, negative = cytotoxicity: at 46.1 µM (top of the series)
Procedure, shortened: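 Cytotoxicity toward P-gp-expressing KB-V1 cells was determined as loss of CellTiter-Glo luminescence after 72 h at 37 degrees C. Compounds were tested in quantitative HTS format across a concentration range, with curves fitted to normalized data.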
% is set by controls: 0 for no effect and ±100 for the full control effect; potency is the fitted concentration of half-maximal effect.

| SMILES | Potency | activity change, negative = cytotoxicity |
| --- | --- | --- |
| Cc1ccc(NS(=O)(=O)c2ccc(Cl)c(NC(=S)NC(=O)C3CCCCC3)c2)cc1Cl | inactive | – |
| O=C(CCCN1C(=O)/C(=C/c2ccccc2OC(F)F)SC1=S)Nc1cccnc1 | inconclusive: 29.1 µM [cytotoxic, single point] | – |
| C=CCN(C(=O)c1csnn1)C(C(=O)NCc1ccc(F)cc1)c1ccccc1 (stereo not given) | inconclusive: 0.82 µM [cytotoxic, full curve] | – |
| CCCN(Cc1nnc(-c2ccccc2Cl)o1)C(=O)COc1ccc(Cl)cc1 | active: 4.11 µM | – |
| CC(=O)Nc1ccc(S(=O)(=O)NNC2=NS(=O)(=O)c3ccccc32)cc1 | inactive | – |
| COc1ccc(CCNC(=O)c2cn(C)c3ccc(S(=O)(=O)N4CCOCC4)cc3c2=O)cc1OC | – | inconclusive: 38.9% |
| Nc1ccc(C(=O)Nc2ccc(OC(F)(F)C(F)F)c(NC(=O)c3ccc(N)cc3)c2)cc1 | inconclusive: 20.6 µM [cytotoxic, single point] | – |
| CCCS(=O)(=O)N1CCC(C(=O)NCCCOC)CC1 | inactive | – |
| CCOC(=O)C1=C(C)NC(=S)NC1c1ccc(-c2cccc(Cl)c2C)o1 (stereo not given) | inconclusive: 29.1 µM [cytotoxic, single point] | – |
| C=C(C)COc1ccc(-c2[nH]ncc2Oc2ccc(OC)cc2)c(O)c1 | inactive | – |
| CC1(C)Cc2c(C#N)c(N3CCN(C(=O)c4ccccc4)CC3)nc(-c3ccco3)c2CS1 | inconclusive: 18.4 µM [cytotoxic, single point] | – |
| COC(=O)c1cc(C(=O)OC)n(Cc2ccc(Br)cc2)n1 | inconclusive: 16.4 µM [cytotoxic, single point] | – |
| CCOc1cc(C(=O)CCC(=O)OCC(=O)Nc2ccc(F)cc2)ccc1O | inconclusive: 29.1 µM [rising, single point] | – |
| CS(=O)(=O)N1CCN(c2ccccc2NC(=O)Cc2ccccc2)CC1 | inconclusive: 8.2 µM [cytotoxic, partial curve] | – |
| Cc1cccc(Cn2c(SCc3ccc(C(=O)NC4CCCC4)cc3)nc3cccnc32)c1 | inactive | – |
| C=CCN(CC=C)C(=O)c1ccc2nc(Cc3ccc(OC)c(OC)c3)oc2c1 | inconclusive: 29.1 µM [cytotoxic, single point] | – |
| CCCCn1c(=N)n(CC(=O)c2ccc(Br)s2)c2ccccc21 | inconclusive: 20.6 µM [cytotoxic, single point] | – |
| CCOc1ccc(C(C(=O)NC(C)(C)C)N(CCOC)C(=O)CCC(=O)Nc2ccccn2)cc1 (stereo not given) | inconclusive: 23.1 µM [cytotoxic, single point] | – |
| CCOc1cc(/C=C\c2nc(O)c([N+](=O)[O-])c(=O)[nH]2)ccc1OC(C)C | – | inconclusive: 33.4% |
| COCCNc1nc(NCc2cccc(OC)c2OC)c2sccc2n1 | inconclusive: 2.91 µM [cytotoxic, full curve] | – |
| Cc1ccccc1OCCCCn1c(CCNC(=O)C(C)(C)C)nc2ccccc21 | inconclusive: 7.31 µM [cytotoxic, partial curve, poor fit] | – |
| COc1cccc(-c2ccc(C#N)c(SCC(=O)NCCc3ccccc3)n2)c1 | inconclusive: 20.6 µM [cytotoxic, single point] | – |
| COc1ccc(/C=C/C(=O)c2ccc3c4c(cccc24)CC3)cc1OC | active: 16.4 µM | – |

| SMILES | Potency | activity change, negative = cytotoxicity |
| --- | --- | --- |
| N=c1c2c(-c3ccccc3)c(-c3ccccc3)n(Cc3ccccc3)c2ncn1CCCn1ccnc1 | inconclusive: 20.6 µM [cytotoxic, single point] | – |
| Cc1ccc2nc(-c3cccc(N)c3)[nH]c2c1 | inactive | – |
| O=C(O)/C(=C\c1ccccc1OC(F)F)Sc1nnc(-c2ccc(F)cc2)o1 | inactive | – |
| CCOC(=O)C1=C(C)N(c2ccc(OC)cc2)C(=O)/C1=C\c1ccc(O)c(OCC)c1 | inactive | – |
| COc1ccc(C)cc1NS(=O)(=O)c1ccc2c(c1)NC(=O)C(C)S2 (stereo not given) | inactive | – |
| CCCCCOc1ccc(CSc2n[nH]c(C)n2)cc1 | inactive | – |
| O=C(CNCC1CCCCC1)Nc1ccccc1N1CCCCC1 | inconclusive: 20.6 µM [cytotoxic, single point] | – |
| CCOC(=O)[C@]12CCC=C1N(CCC1=CCCCC1)C(=O)[C@H](CC(=O)NCC1CCCCC1)C2 | inconclusive: 8.2 µM [cytotoxic, partial curve] | – |
| CC1(C(=O)NS(=O)(=O)c2cccc(Cl)c2)CCN1C(=O)Cc1ccc(-c2ccccc2)cc1 (stereo not given) | inactive | – |
| CCCCCCC1CCC(C(=O)Nn2c(C)nc3ccccc3c2=O)CC1 (stereo not given) | inconclusive: 13 µM [cytotoxic, partial curve, poor fit] | – |
| COc1ccc(NC(=O)c2sc(N3CCOCC3)nc2-c2ccccc2)c(OC)c1 | inconclusive: 29.1 µM [cytotoxic, single point] | – |
| Cc1ccc2nc(-c3cccc(NC(=O)c4ccc5c(c4)OCCO5)c3)oc2c1 | inactive | – |
| Cc1ccc(CNC(=O)CN2C(=O)NC3(CC(C)CC(C)(C)C3)C2=O)cc1 (stereo not given) | inconclusive: 20.6 µM [cytotoxic, partial curve, poor fit] | – |
| CCn1c(CNC(=O)C23CC4CC(CC(C4)C2)C3)nnc1SC | inconclusive: 23.1 µM [cytotoxic, partial curve, poor fit] | – |
| O=S(=O)(c1ccc(OCC(O)CNC23CC4CC(CC(C4)C2)C3)c(Cl)c1)N1CCOCC1 (stereo not given) | inconclusive: 23.1 µM [cytotoxic, single point] | – |
| Cc1onc(-c2ccccc2)c1-c1csc(N/N=C/c2ccccc2)n1 | inactive | – |
| O=C(Cc1cn(Cc2cccc(Cl)c2)c2ccccc12)N1CCCCCC1 | active: 4.61 µM | – |
| O=C1C2CCC(C2)C1CN1CCOCC1 (stereo not given) | inactive | – |
| Cc1ccc(S(=O)(=O)NCc2nc3nc(C)cc(C)n3n2)cc1 | inconclusive: 2.31 µM [cytotoxic, full curve, poor fit] | – |
| Cc1ccc(C(=O)NCc2ccco2)cc1S(=O)(=O)N1CCCCC1 | inconclusive: 16.4 µM [cytotoxic, single point] | – |
| Cc1cc(CN(C)C(=O)C2CCC(=O)N(CCc3cccc(F)c3)C2)on1 (stereo not given) | inactive | – |
| CC(C)CCNc1nnnc2c1sc1nc(N3CCOCC3)c3c(c12)CC(C)(C)SC3 | inconclusive: 18.4 µM [cytotoxic, single point] | – |

Another view of part of the listing above.
SMILES,Potency,"activity change, negative = cytotoxicity"
Cc1ccc2nc(-c3cccc(N)c3)[nH]c2c1,inactive,–
COc1ccc(C)cc1NS(=O)(=O)c1ccc2c(c1)NC(=O)C(C)S2 (stereo not given),inactive,–
Cc1ccc(S(=O)(=O)NCc2nc3nc(C)cc(C)n3n2)cc1,"inconclusive: 2.31 µM [cytotoxic, full curve, poor fit]",–
